According to the supplement of paper PMC10849652:
The list shows a part of the results.

Chains of the proteins cited; added tags and fusions are not shown. Lines headed by an entry give the natural chain unless they say otherwise; changes in a name come on top.
UniProt Q16891: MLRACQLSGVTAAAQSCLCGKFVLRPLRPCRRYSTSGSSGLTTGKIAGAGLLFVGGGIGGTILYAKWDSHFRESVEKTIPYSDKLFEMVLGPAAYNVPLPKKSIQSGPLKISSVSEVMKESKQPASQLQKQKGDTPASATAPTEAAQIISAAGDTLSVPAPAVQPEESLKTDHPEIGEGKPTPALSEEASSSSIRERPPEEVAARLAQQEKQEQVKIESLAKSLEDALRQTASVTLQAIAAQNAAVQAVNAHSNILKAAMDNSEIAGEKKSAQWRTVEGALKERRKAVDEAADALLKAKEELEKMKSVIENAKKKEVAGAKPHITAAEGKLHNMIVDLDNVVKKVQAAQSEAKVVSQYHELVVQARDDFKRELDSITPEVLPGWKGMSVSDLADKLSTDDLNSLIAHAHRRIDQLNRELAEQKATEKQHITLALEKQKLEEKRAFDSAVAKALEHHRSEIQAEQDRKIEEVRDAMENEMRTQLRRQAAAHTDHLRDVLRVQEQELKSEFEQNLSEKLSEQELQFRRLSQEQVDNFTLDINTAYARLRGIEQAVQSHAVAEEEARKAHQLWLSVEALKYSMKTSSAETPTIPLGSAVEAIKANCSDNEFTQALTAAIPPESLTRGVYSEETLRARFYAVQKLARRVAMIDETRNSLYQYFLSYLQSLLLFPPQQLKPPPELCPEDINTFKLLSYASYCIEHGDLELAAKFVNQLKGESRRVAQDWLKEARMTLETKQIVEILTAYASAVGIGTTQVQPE
UniProt Q9BUP3: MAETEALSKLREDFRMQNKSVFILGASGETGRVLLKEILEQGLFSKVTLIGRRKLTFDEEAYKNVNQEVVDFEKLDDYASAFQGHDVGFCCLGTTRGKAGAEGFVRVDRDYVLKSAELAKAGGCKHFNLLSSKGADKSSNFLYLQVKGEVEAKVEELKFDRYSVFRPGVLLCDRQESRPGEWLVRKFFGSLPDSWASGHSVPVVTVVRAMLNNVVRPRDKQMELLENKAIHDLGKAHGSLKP
UniProt Q5T440: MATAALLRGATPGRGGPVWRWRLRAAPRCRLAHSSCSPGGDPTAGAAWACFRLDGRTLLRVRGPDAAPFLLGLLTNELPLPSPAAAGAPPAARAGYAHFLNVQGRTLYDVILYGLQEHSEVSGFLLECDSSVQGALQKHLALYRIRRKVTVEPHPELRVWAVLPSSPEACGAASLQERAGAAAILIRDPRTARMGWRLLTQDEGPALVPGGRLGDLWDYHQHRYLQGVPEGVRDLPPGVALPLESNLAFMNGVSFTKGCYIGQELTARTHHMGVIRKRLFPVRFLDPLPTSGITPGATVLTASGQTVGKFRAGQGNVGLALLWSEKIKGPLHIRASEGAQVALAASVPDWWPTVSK
UniProt P51553: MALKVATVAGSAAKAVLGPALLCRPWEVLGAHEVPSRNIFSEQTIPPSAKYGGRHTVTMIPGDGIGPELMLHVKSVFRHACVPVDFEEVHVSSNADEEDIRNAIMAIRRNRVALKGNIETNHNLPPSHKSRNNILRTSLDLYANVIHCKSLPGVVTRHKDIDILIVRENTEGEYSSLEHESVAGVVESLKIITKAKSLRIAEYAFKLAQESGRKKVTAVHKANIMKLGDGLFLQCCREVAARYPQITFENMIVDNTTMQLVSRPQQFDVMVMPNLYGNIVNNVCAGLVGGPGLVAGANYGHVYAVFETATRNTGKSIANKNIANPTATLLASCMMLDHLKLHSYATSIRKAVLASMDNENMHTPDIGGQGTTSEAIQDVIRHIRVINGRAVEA
UniProt Q9NZL4: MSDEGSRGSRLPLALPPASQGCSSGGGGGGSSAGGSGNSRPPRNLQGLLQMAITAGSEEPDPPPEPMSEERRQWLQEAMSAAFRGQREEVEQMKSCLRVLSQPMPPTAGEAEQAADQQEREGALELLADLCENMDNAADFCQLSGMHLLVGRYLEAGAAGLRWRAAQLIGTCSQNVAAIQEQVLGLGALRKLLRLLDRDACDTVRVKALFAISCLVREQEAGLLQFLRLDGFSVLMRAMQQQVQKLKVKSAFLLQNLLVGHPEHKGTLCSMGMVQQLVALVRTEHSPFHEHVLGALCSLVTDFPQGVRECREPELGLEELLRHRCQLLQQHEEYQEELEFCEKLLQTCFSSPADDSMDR
UniProt Q9NZI8, whole entry, looked up: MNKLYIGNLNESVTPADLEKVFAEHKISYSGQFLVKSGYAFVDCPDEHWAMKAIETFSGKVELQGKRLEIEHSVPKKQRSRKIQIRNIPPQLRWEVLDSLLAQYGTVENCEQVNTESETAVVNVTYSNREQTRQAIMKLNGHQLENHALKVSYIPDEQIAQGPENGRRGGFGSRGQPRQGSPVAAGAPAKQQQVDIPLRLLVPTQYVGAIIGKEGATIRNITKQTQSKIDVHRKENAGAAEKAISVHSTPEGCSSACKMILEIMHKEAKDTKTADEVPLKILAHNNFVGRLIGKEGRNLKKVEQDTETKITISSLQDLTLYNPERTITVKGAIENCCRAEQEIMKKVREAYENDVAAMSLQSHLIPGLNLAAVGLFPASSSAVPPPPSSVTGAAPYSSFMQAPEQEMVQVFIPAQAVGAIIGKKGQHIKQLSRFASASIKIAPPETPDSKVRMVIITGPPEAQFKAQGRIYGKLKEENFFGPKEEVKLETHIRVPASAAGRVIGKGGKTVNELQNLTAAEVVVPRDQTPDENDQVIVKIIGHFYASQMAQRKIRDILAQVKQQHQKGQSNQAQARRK
UniProt P80217: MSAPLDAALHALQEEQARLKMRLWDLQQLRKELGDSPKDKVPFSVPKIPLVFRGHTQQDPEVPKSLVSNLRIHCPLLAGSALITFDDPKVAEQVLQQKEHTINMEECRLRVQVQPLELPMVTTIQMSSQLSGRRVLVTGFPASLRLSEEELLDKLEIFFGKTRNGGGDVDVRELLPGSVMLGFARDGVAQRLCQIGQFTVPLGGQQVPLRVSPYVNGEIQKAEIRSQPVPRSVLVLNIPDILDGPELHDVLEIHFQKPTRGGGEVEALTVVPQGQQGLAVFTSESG
UniProt Q12906, whole entry, looked up: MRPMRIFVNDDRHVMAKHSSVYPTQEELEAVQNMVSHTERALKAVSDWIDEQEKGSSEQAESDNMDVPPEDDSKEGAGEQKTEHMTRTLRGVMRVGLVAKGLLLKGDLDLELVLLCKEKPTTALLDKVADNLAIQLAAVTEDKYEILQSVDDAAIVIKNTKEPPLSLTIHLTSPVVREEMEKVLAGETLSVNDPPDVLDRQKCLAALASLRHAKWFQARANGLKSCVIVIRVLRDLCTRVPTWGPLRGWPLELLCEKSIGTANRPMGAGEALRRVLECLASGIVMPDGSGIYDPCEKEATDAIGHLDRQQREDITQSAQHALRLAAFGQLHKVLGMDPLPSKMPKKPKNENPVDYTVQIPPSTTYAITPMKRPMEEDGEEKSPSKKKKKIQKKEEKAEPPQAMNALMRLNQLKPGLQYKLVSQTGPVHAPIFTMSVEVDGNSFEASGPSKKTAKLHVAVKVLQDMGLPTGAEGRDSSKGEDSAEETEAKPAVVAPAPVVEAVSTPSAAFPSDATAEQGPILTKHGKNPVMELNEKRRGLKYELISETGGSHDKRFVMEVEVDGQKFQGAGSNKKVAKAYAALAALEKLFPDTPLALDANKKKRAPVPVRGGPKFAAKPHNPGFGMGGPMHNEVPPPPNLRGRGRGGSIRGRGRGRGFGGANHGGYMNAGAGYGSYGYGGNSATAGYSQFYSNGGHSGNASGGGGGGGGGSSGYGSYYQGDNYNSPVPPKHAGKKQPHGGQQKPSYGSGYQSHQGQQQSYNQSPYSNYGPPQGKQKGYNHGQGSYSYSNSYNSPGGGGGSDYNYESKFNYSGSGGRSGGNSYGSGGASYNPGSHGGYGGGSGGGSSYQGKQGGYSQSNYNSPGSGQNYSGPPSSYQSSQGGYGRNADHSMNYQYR
UniProt P38646: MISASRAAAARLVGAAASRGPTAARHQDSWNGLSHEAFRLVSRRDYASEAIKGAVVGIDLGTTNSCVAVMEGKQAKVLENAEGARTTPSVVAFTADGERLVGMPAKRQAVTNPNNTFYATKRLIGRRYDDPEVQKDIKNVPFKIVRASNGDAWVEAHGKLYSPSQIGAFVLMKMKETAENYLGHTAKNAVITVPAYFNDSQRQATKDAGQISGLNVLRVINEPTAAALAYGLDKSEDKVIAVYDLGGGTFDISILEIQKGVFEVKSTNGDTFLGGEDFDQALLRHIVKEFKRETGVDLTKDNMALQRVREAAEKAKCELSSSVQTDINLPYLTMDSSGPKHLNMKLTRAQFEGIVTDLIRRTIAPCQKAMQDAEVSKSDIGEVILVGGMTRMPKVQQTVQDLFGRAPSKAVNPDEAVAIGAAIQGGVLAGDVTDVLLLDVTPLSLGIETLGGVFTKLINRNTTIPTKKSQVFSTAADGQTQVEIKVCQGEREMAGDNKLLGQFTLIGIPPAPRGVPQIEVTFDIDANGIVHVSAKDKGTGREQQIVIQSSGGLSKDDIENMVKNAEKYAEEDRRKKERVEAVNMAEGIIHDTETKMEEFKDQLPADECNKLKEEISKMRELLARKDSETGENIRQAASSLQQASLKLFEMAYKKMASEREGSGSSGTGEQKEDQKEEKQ
UniProt O00458: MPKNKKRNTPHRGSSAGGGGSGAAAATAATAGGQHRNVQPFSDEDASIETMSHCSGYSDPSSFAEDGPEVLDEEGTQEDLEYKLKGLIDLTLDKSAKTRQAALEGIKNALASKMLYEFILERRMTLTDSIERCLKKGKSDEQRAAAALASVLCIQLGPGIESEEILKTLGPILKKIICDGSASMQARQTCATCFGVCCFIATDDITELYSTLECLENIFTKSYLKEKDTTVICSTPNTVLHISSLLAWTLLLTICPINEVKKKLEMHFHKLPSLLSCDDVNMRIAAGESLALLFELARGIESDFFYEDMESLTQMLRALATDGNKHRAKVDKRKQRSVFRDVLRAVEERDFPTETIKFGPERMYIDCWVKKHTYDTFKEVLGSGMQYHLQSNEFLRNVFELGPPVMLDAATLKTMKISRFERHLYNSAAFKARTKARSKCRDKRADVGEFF
UniProt Q969P0: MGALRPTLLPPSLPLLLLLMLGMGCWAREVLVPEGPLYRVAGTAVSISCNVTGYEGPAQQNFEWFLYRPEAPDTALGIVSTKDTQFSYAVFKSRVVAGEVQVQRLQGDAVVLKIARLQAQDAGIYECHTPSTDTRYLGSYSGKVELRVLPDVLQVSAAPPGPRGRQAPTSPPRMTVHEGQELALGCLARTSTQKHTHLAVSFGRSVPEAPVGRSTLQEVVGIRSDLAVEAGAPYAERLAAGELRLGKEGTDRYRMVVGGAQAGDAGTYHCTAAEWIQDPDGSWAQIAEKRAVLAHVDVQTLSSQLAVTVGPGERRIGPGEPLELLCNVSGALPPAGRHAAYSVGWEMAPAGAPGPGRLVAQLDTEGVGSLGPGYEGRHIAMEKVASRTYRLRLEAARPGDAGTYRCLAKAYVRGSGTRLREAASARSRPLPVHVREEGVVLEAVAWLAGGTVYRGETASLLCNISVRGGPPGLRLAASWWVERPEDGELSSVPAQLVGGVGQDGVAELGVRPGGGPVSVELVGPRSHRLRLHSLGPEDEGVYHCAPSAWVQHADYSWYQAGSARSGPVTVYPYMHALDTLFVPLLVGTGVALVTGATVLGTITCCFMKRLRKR
UniProt Q9P2H3, whole entry, looked up: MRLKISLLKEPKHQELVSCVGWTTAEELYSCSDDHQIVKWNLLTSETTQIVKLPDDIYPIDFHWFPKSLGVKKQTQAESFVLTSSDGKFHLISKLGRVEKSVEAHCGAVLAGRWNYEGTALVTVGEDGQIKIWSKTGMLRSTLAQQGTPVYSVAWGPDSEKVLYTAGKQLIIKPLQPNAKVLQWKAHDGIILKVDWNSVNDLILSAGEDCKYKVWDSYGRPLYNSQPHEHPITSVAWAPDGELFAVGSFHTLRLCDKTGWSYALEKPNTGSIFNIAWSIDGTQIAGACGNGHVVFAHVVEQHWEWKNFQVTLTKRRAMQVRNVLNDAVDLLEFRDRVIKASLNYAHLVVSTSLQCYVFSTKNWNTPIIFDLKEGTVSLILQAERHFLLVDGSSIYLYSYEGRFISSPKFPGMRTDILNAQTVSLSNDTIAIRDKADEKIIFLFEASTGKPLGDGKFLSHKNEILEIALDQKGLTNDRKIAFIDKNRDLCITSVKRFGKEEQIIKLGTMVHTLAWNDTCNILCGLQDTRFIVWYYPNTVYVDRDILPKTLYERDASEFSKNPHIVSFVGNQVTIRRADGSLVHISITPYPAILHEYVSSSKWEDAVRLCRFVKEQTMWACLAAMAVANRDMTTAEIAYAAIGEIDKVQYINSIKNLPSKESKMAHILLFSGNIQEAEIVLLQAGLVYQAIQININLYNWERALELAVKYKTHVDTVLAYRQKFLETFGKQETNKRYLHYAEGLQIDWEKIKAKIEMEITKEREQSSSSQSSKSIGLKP
UniProt Q01628, whole entry, looked up: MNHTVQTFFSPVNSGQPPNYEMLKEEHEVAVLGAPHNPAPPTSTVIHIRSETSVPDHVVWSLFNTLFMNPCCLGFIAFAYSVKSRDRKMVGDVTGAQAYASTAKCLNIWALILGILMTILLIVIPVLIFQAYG

What was measured:
Test in all cases: log2 fold change, soluble protein after heating vs DMSO (PISA); higher = thermal stabilisation; K562 lysate, 10 uM; active = over 0.2 and 3.5 SD of the protein, either way, in both replicates (recomputed)
[1] = compound: CN1CC[C@H](c2c(O)cc(O)c3c(=O)cc(-c4ccccc4Cl)oc23)[C@H](O)C1 [alvocidib]
Summary of the method: (§1)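 A 30 min treatment with 10 μM compound was applied to crude K562 extract at 1 mg/mL protein in PBS pH 7.4 with 1 mM MgCl2. Heating for 3 min spanned 48°C-58°C, after which aliquots were pooled, adjusted to 0.5% NP-40 at 4°C and spun at 21,000xg for 90 min. TMTpro 16plex LC-MS/MS of the supernatant, with channel sums equalised, gave values recorded as log-two fold change in thermal stability against solvent controls, from duplicates.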

[2] = compound: CN1CCc2c(c3ccccc3n2Cc2ccc(C(=O)NO)cc2)C1 [Tubastatin A]
Summary of the method: as §1

[3] = compound: CNC(=O)C1=CC=CC=C1NC2=NC(=NC=C2Cl)NC3=C(C=C(C=C3)N4CCOCC4)OC
Summary of the method: as §1

[4] = compound: CNC(=O)c1ccc(Nc2ncc(C(F)(F)F)c(NCc3nccnc3N(C)S(C)(=O)=O)n2)cc1 [defactinib]
Summary of the method: as §1

[5] = compound: CNc1nc(-c2ccc3c(N)n[nH]c3c2)cc(N2C[C@@H](C(=O)NC3CCCCC3)CC[C@H]2C)n1
Summary of the method: as §1

[6] = compound: COC(=O)N[C@@H](C)CNc1nccc(-c2cn(C(C)C)nc2-c2cc(Cl)cc(NS(C)(=O)=O)c2F)n1 [encorafenib]
Summary of the method: as §1

[7] = compound: COC(=O)[C@H](CCSC)NC(=O)C1=C(C=C(C=C1)NC[C@H](CS)N)C2=CC=CC=C2
Summary of the method: as §1

[8] = compound: COc1cc(Nc2ncc3c(n2)-c2ccc(Cl)cc2C(c2c(F)cccc2OC)=NC3)ccc1C(=O)O [alisertib]
Summary of the method: as §1

[9] = compound: COc1cc2nc(-c3cc(F)ccc3O)nc(N[C@@H]3CNC[C@H]3C(C)(C)O)c2cc1OC
Summary of the method: as §1

[10] = compound: COc1cc2ncnc(Nc3ccc(F)c(Cl)c3)c2cc1OCCCN1CCOCC1 [gefitinib]
Summary of the method: as §1

[11] = compound: CS(=O)(=O)CCNCc1ccc(-c2ccc3ncnc(Nc4ccc(OCc5cccc(F)c5)c(Cl)c4)c3c2)o1 [lapatinib]
Summary of the method: as §1

[12] = compound: CS(=O)(=O)N1CCN(Cc2cc3nc(-c4cccc5[nH]ncc45)nc(N4CCOCC4)c3s2)CC1 [pictilisib]
Summary of the method: as §1

[13] = compound: C[C@@H](Oc1cc(-c2cnn(C3CCNCC3)c2)cnc1N)c1c(Cl)ccc(F)c1Cl [crizotinib]
Summary of the method: as §1

[14] = compound: C[C@H](C1=CC=C(C=C1)C(=O)NC2=C3C=CNC3=NC=C2)N
Summary of the method: as §1

[15] = compound: C[C@H](Nc1ncnc2nc[nH]c12)c1cc2cccc(Cl)c2c(=O)n1-c1ccccc1 [duvelisib]
Summary of the method: as §1

[16] = compound: Cc1cc(Nc2cc(CN3CCOCC3)c3nc(C)c(Cc4ccc(Cl)cc4F)n3n2)n[nH]1 [gandotinib]
Summary of the method: as §1

[17] = compound: Cc1cc(Nc2cc(N3CCN(C)CC3)nc(Sc3ccc(NC(=O)C4CC4)cc3)n2)n[nH]1 [tozasertib]
Summary of the method: as §1

[18] = compound: Cc1ccc(-n2nc(C(C)(C)C)cc2NC(=O)Nc2ccc(OCCN3CCOCC3)c3ccccc23)cc1 [doramapimod]
Summary of the method: as §1

[19] = compound: Cc1ccc(NC(=O)c2ccc(CN3CC[C@H](N(C)C)C3)c(C(F)(F)F)c2)cc1Nc1nccc(-c2cncnc2)n1 [bafetinib]
Summary of the method: as §1

[20] = compound: Cc1cccc(CC(=O)N2CCc3c2ccc(-c2cn(C)c4ncnc(N)c24)c3F)n1
Summary of the method: as §1

Measured: log2 fold change

IMMT (UniProt Q16891)
inactive: [1] 0.031 | [2] -0.079 | [3] -0.03 | [4] 0.019 | [5] -0.041 | [6] 0.014 | [7] -0.045 | [8] 0.034 | [9] -0.145 | [10] -0.022 | [11] -0.058 | [12] 0.001 | [13] -0.049 | [14] -0.006 | [15] -0.039 | [16] -0.134 | [17] 0.02 | [18] 0.011 | [19] -0.053 | [20] 0.023

HTATIP2 isoform 3 (UniProt Q9BUP3)
inactive: [1] 0.031 | [2] -0.104 | [3] -0.025 | [4] 0.019 | [5] -0.041 | [6] 0.007 | [7] 0.015 | [8] -0.015 | [9] -0.015 | [10] 0.001 | [11] -0.017 | [12] 0.008 | [13] 0.005 | [14] 0.022 | [15] -0.007 | [16] -0.068 | [17] -0.003 | [18] 0.017 | [19] -0.042 | [20] -0.036

IBA57 (UniProt Q5T440)
inactive: [1] -0.036 | [2] 0.019 | [3] -0.012 | [4] -0.018 | [5] -0.055 | [6] -0.01 | [7] 0.004 | [8] 0.019 | [9] -0.014 | [10] 0.005 | [11] -0.03 | [12] -0.074 | [13] 0.072 | [14] -0.027 | [15] 0.027 | [16] -0.009 | [17] 0.016 | [18] -0.014 | [19] -0.016 | [20] 0.003

IDH3G (UniProt P51553)
inactive: [1] 0.023 | [2] -0.027 | [3] -0.015 | [4] 0 | [5] -0.108 | [6] 0.005 | [7] 0.043 | [8] 0 | [9] -0.001 | [10] -0.046 | [11] -0.006 | [12] -0.029 | [13] -0.05 | [14] -0.028 | [15] -0.014 | [16] 0.015 | [17] -0.008 | [18] 0.011 | [19] -0.015 | [20] 0.003

HSPBP1 (UniProt Q9NZL4)
inactive: [1] -0.005 | [2] 0 | [3] -0.003 | [4] -0.003 | [5] 0.012 | [6] 0.004 | [7] -0.019 | [8] -0.009 | [9] 0.004 | [10] 0.007 | [11] -0.029 | [12] 0.017 | [13] -0.015 | [14] -0.009 | [15] -0.008 | [16] 0.027 | [17] -0.021 | [18] -0.003 | [19] -0.03 | [20] 0.004

IGF2BP1 (UniProt Q9NZI8)
inactive: [1] 0.001 | [2] -0.148 | [3] 0.005 | [4] 0.009 | [5] -0.027 | [6] -0.003 | [7] 0.195 | [8] 0.012 | [9] -0.008 | [10] -0.015 | [11] -0.013 | [12] -0.015 | [13] -0.031 | [14] -0.074 | [15] -0.004 | [16] -0.071 | [17] 0.009 | [18] -0.014 | [19] -0.03 | [20] 0.067

ICE2 (UniProt Q659A1)
inactive: [1] 0.029 | [2] -0.02 | [3] -0.026 | [4] 0.037 | [5] -0.015 | [6] 0.028 | [7] 0.025 | [8] 0.003 | [9] 0.05 | [10] -0.016 | [11] -0.1 | [12] -0.025 | [13] -0.029 | [14] -0.03 | [15] 0.007 | [16] -0.018 | [17] 0.012 | [18] 0.016 | [19] -0.051 | [20] 0.02

INPP4A (UniProt Q96PE3)
inactive: [1] -0.032 | [2] -0.051 | [3] 0.033 | [4] 0.046 | [5] 0.009 | [6] 0.01 | [7] -0.019 | [8] -0.026 | [9] 0.01 | [10] -0.033 | [11] -0.028 | [12] -0.116 | [13] -0.024 | [14] -0.086 | [15] 0.025 | [16] 0.003 | [17] 0.065 | [18] 0.014 | [19] 0.132 | [20] 0.128

ICAM5 (UniProt Q9UMF0)
inactive: [1] -0.057 | [2] -0.046 | [3] 0.038 | [4] 0.076 | [5] -0.095 | [6] -0.035 | [7] -0.024 | [8] -0.059 | [9] -0.003 | [10] -0.014 | [11] -0.035 | [12] -0.06 | [13] 0.06 | [14] -0.201 | [15] 0.114 | [16] 0.228 | [17] -0.038 | [18] 0.023 | [19] 0.029 | [20] 0.296

IFI35 isoform 2 (UniProt P80217)
inactive: [1] -0.034 | [2] 0.039 | [3] 0.01 | [4] -0.027 | [5] 0.016 | [6] 0.005 | [7] 0.033 | [8] -0.03 | [9] -0.018 | [10] -0.006 | [11] -0.026 | [12] -0.028 | [13] -0.019 | [14] -0.193 | [15] -0.007 | [16] 0.064 | [17] -0.021 | [18] 0.016 | [19] -0.027 | [20] 0.032

ILF3 isoform 7 (UniProt Q12906)
inactive: [1] -0.012 | [2] 0.038 | [3] -0.013 | [4] -0.012 | [5] 0.008 | [6] 0.02 | [7] -0.06 | [8] 0.002 | [9] 0.003 | [10] 0.024 | [11] 0.002 | [12] 0.002 | [13] 0.019 | [14] -0.03 | [15] 0.028 | [16] 0.02 | [17] 0.007 | [18] -0.011 | [19] 0.003 | [20] 0.019

HSPA9 (UniProt P38646)
inactive: [1] 0.003 | [2] 0.033 | [3] -0.043 | [4] -0.001 | [5] -0.042 | [6] -0.036 | [7] -0.039 | [8] 0.014 | [9] -0.014 | [10] 0.003 | [11] 0.006 | [12] 0.014 | [13] 0.05 | [14] 0.026 | [15] 0 | [16] -0.035 | [17] 0.024 | [18] -0.013 | [19] 0.012 | [20] -0.038

IFRD1 (UniProt O00458)
inactive: [1] 0.094 | [2] 0.025 | [3] 0.005 | [4] 0.02 | [5] -0.056 | [6] 0.034 | [7] -0.015 | [8] -0.032 | [9] -0.012 | [10] 0.075 | [11] 0.026 | [12] 0.076 | [13] 0.016 | [14] 0.152 | [15] 0.018 | [16] -0.044 | [17] 0.078 | [18] -0.02 | [19] 0.054 | [20] -0.104

IGSF8 (UniProt Q969P0)
inactive: [1] -0.005 | [2] 0 | [3] 0.026 | [4] -0.038 | [5] 0.003 | [6] 0.138 | [7] -0.089 | [8] -0.149 | [9] -0.003 | [10] 0.115 | [11] -0.04 | [12] -0.05 | [13] -0.145 | [14] -0.113 | [15] -0.094 | [16] 0.022 | [17] 0.015 | [18] 0 | [19] -0.027 | [20] 0.119

IFT80 isoform 3 (UniProt Q9P2H3)
inactive: [1] 0.076 | [2] -0.043 | [3] 0.076 | [4] -0.163 | [5] 0.08 | [6] -0.024 | [7] 0.009 | [8] -0.007 | [9] 0.004 | [10] 0.015 | [11] -0.075 | [12] -0.083 | [13] -0.078 | [14] -0.044 | [15] 0.077 | [16] -0.034 | [17] 0.005 | [18] 0.107 | [19] 0.025 | [20] 0.088

IFITM3 (UniProt Q01628)
inactive: [1] -0.001 | [2] -0.329 | [3] 0.01 | [4] 0.118 | [5] 0.042 | [6] 0.043 | [7] -0.142 | [8] 0.109 | [9] -0.137 | [10] 0.291 | [11] -0.123 | [12] -0.067 | [13] -0.089 | [14] -0.103 | [15] -0.005 | [16] 0.035 | [17] -0.153 | [18] -0.034 | [19] 0.09 | [20] -0.022
